{"source": "PubChem BioAssay AID1259259 (Sanger Institute, 2017)", "purpose": "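Kinome siRNA search for kinases essential alone or combined with trametinib, cetuximab or BYL719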 (primary screen)", "system": "SW1463 human colorectal cancer cells", "reagent": "siRNA pool against human genes", "challenge": "DMSO vehicle, or one anchor drug: BYL719 at 1 µM, cetuximab at 5 µg/ml, or trametinib at 10 nM", "detection": "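Viability as fraction of control pool 2 (non-targeting), replicate mean; knock-down robust z-score without any drug; synergy score averaged for each anchor drug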", "direction": "robust z-score, knock-down alone: higher = more viable cells after knock-down", "rule for the call": "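Knock-down called essential when its robust z-score without drug falls below -3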", "calls": "active = essential: viability loss from knock-down alone; inactive = no change from knock-down alone", "note": "The whole screen tested 794 reagents; below is an unselected part. 9 of all reagents (1.1%) were called active. 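Calls rest on knock-down alone, not drug synergy; viability values seem capped at 1.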 Not all columns of the deposit are shown. Not given: the amount of reagent, the time to read-out."}
{"Gene":"ERBB2 (erb-b2 receptor tyrosine kinase 2)","robust z-score, knock-down alone":0.195,"Call":"inactive"}
{"Gene":"PIK3R5 (phosphoinositide-3-kinase regulatory subunit 5)","robust z-score, knock-down alone":1.13,"Call":"inactive"}
{"Gene":"DBF4 (DBF4-CDC7 kinase regulatory subunit)","robust z-score, knock-down alone":0.11,"Call":"inactive"}
{"Gene":"PANK2 (pantothenate kinase 2)","robust z-score, knock-down alone":-0.356,"Call":"inactive"}
{"Gene":"PRKAG1 (protein kinase AMP-activated non-catalytic subunit gamma 1)","robust z-score, knock-down alone":0.367,"Call":"inactive"}
{"Gene":"ALK (ALK receptor tyrosine kinase)","robust z-score, knock-down alone":-1.16,"Call":"inactive"}
{"Gene":"CASK (calcium/calmodulin dependent serine protein kinase)","robust z-score, knock-down alone":-0.151,"Call":"inactive"}
{"Gene":"IP6K1 (inositol hexakisphosphate kinase 1)","robust z-score, knock-down alone":0.799,"Call":"inactive"}
{"Gene":"BRAF (B-Raf proto-oncogene, serine/threonine kinase)","robust z-score, knock-down alone":-0.665,"Call":"inactive"}
{"Gene":"AXL (AXL receptor tyrosine kinase)","robust z-score, knock-down alone":0.0959,"Call":"inactive"}
{"Gene":"ZAP70 (zeta chain of T cell receptor associated protein kinase 70)","robust z-score, knock-down alone":-0.891,"Call":"inactive"}
{"Gene":"EFNA3 (ephrin A3)","robust z-score, knock-down alone":-0.27,"Call":"inactive"}
{"Gene":"NF1 (neurofibromin 1)","robust z-score, knock-down alone":0.732,"Call":"inactive"}
{"Gene":"ACVRL1 (activin A receptor like type 1)","robust z-score, knock-down alone":1.13,"Call":"inactive"}
{"Gene":"INSRR (insulin receptor related receptor)","robust z-score, knock-down alone":0.852,"Call":"inactive"}
{"Gene":"KMT2B (lysine methyltransferase 2B)","robust z-score, knock-down alone":-1.11,"Call":"inactive"}
{"Gene":"TP53RK (TP53 regulating kinase)","robust z-score, knock-down alone":0.861,"Call":"inactive"}
{"Gene":"FN3K (fructosamine 3 kinase)","robust z-score, knock-down alone":-0.427,"Call":"inactive"}
{"Gene":"MAPK7 (mitogen-activated protein kinase 7)","robust z-score, knock-down alone":1.13,"Call":"inactive"}

Ordered by “robust z-score, knock-down alone” (low to high): some entries from above.
{"Gene":"INSRR (insulin receptor related receptor)","robust z-score, knock-down alone":0.852,"Call":"inactive"}
{"Gene":"ACVRL1 (activin A receptor like type 1)","robust z-score, knock-down alone":1.13,"Call":"inactive"}
